Experimental data published in publication PMC4374960 (2015).
No constants are given. Whether binding was seen depends on the method and setting. Some results given as binding are weak or reduced against the parent protein; the word gives no strength.

T1: CarG (in pUT18C) (Myxococcus xanthus) (UniProt Q50888)
T1 sequence: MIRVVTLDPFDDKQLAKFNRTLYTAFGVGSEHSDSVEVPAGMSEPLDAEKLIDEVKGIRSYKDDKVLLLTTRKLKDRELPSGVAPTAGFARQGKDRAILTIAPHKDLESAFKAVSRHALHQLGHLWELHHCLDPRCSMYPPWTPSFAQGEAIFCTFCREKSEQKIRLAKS

T2: Mxβ_(19–148), M. xanthus RNA polymerase β subunit fragment spanning residues 19 to 148 (in pUT18C) (Myxococcus xanthus) (UniProt Q1D7U3)
T2 sequence: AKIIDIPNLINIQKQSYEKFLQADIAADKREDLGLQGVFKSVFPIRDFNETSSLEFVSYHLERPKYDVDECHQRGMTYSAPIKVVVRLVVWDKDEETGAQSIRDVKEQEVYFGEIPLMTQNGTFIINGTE

T3: Mxβ_(19–148) D122A (in pUT18C) (Myxococcus xanthus) (UniProt Q1D7U3)
T3 sequence: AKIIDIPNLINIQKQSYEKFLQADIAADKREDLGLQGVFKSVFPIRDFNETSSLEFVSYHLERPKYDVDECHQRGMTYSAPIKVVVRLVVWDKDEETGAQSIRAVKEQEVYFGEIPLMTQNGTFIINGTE

T4: Mxβ_(19–148) K124A (in pUT18C) (Myxococcus xanthus) (UniProt Q1D7U3)
T4 sequence: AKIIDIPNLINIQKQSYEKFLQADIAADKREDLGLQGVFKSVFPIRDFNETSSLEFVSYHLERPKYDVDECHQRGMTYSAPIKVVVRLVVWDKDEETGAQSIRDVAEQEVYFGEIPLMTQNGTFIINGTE


Experiments:
[1] = target: T1, CarG (in pUT18C) (Myxococcus xanthus); assay: two-hybrid; E. coli BACTH (T25/T18 fragments of B. pertussis adenylate cyclase) in BTH101 (cya-); CarD constructs in pKT25, Mxβ19-148 or CarG in pUT18C; reporter lacZ β-Gal activity of liquid cultures, mean of three independent experiments (Fig. 2, 4C, 4D)
[2] = target: T2, Mxβ_(19–148), M. xanthus RNA polymerase β subunit fragment spanning residues 19 to 148 (in pUT18C) (Myxococcus xanthus); assay: as above
[3] = target: T1, CarG (in pUT18C) (Myxococcus xanthus); assay: two-hybrid; E. coli BACTH in BTH101 (cya-); CarD constructs in pKT25, partner in pUT18C or pUT18; spot assay (Fig. 4B); for Fig. 6B and 6E the legend does not tell the read-out
[4] = target: T3, Mxβ_(19–148) D122A (in pUT18C) (Myxococcus xanthus); assay: two-hybrid; E. coli BACTH (T25/T18 fragments of B. pertussis adenylate cyclase) in BTH101 (cya-); CarD constructs in pKT25, Mxβ19-148 or CarG in pUT18C; reporter lacZ β-Gal activity of liquid cultures, mean of three independent experiments (Fig. 2, 4C, 4D)
[5] = target: T4, Mxβ_(19–148) K124A (in pUT18C) (Myxococcus xanthus); assay: as above
[6] = target: T2, Mxβ_(19–148), M. xanthus RNA polymerase β subunit fragment spanning residues 19 to 148 (in pUT18C) (Myxococcus xanthus); assay: two-hybrid; E. coli BACTH in BTH101 (cya-); CarD constructs in pKT25, partner in pUT18C or pUT18; spot assay (Fig. 4B); for Fig. 6B and 6E the legend does not tell the read-out

Binder	binding [3]	binding [6]	further results
CarD_(1–72), N-terminal module of CarDNt (in pKT25) (domain or fragment, UniProt Q50887 1-72) MPEGSASLQLAVGDRVVYPNQGVCRVSAIDVKEVAGQKLTFVTMRREEDGAVVMVPEGKVLAIGVRKVASAE	–	–	binding [1]: no binding; binding [2]: binds
CarDNt, the 179-residue N-terminal domain of Myxococcus xanthus CarD (in pKT25) (domain or fragment, UniProt Q50887 1-179) MPEGSASLQLAVGDRVVYPNQGVCRVSAIDVKEVAGQKLTFVTMRREEDGAVVMVPEGKVLAIGVRKVASAEDVEAIFTFLRSDSDKADLDWKQRARTNLDRMTQGGIMGLAEVVKGLQVLSELRPLPTKERELYDNARHLLVTEVAAALGTAEVNAEDAIDIVLFPPGRERPKRTAAE	binds	–	binding [4]: binds; binding [5]: binds; binding [2]: binds
CarDNt W92 mutant (in pKT25) (domain or fragment, UniProt Q50887 1-179) MPEGSASLQLAVGDRVVYPNQGVCRVSAIDVKEVAGQKLTFVTMRREEDGAVVMVPEGKVLAIGVRKVASAEDVEAIFTFLRSDSDKADLDAKQRARTNLDRMTQGGIMGLAEVVKGLQVLSELRPLPTKERELYDNARHLLVTEVAAALGTAEVNAEDAIDIVLFPPGRERPKRTAAE	–	binds	–
CarDNt L100 mutant (in pKT25) (domain or fragment, UniProt Q50887 1-179) MPEGSASLQLAVGDRVVYPNQGVCRVSAIDVKEVAGQKLTFVTMRREEDGAVVMVPEGKVLAIGVRKVASAEDVEAIFTFLRSDSDKADLDWKQRARTNADRMTQGGIMGLAEVVKGLQVLSELRPLPTKERELYDNARHLLVTEVAAALGTAEVNAEDAIDIVLFPPGRERPKRTAAE	–	binds	–
CarDNt T129 mutant (in pKT25) (domain or fragment, UniProt Q50887 1-179) MPEGSASLQLAVGDRVVYPNQGVCRVSAIDVKEVAGQKLTFVTMRREEDGAVVMVPEGKVLAIGVRKVASAEDVEAIFTFLRSDSDKADLDWKQRARTNLDRMTQGGIMGLAEVVKGLQVLSELRPLPAKERELYDNARHLLVTEVAAALGTAEVNAEDAIDIVLFPPGRERPKRTAAE	–	binds	–
CarDNt K130A/R132A (in pKT25) (domain or fragment, UniProt Q50887 1-179) MPEGSASLQLAVGDRVVYPNQGVCRVSAIDVKEVAGQKLTFVTMRREEDGAVVMVPEGKVLAIGVRKVASAEDVEAIFTFLRSDSDKADLDWKQRARTNLDRMTQGGIMGLAEVVKGLQVLSELRPLPTAEAELYDNARHLLVTEVAAALGTAEVNAEDAIDIVLFPPGRERPKRTAAE	–	binds	–
CarDNt K93A/R95A/R97A (in pKT25) (domain or fragment, UniProt Q50887 1-179) MPEGSASLQLAVGDRVVYPNQGVCRVSAIDVKEVAGQKLTFVTMRREEDGAVVMVPEGKVLAIGVRKVASAEDVEAIFTFLRSDSDKADLDWAQAAATNLDRMTQGGIMGLAEVVKGLQVLSELRPLPTKERELYDNARHLLVTEVAAALGTAEVNAEDAIDIVLFPPGRERPKRTAAE	–	binds	–
CarD_(61–179), C-terminal part of CarDNt (in pKT25) (domain or fragment, UniProt Q50887 61-179) LAIGVRKVASAEDVEAIFTFLRSDSDKADLDWKQRARTNLDRMTQGGIMGLAEVVKGLQVLSELRPLPTKERELYDNARHLLVTEVAAALGTAEVNAEDAIDIVLFPPGRERPKRTAAE	–	–	binding [1]: binds; binding [2]: no binding
CarDNt F41A (in pKT25) (domain or fragment, UniProt Q50887 1-179) MPEGSASLQLAVGDRVVYPNQGVCRVSAIDVKEVAGQKLTAVTMRREEDGAVVMVPEGKVLAIGVRKVASAEDVEAIFTFLRSDSDKADLDWKQRARTNLDRMTQGGIMGLAEVVKGLQVLSELRPLPTKERELYDNARHLLVTEVAAALGTAEVNAEDAIDIVLFPPGRERPKRTAAE	binds	–	–
CarDNt M54A (in pKT25) (domain or fragment, UniProt Q50887 1-179) MPEGSASLQLAVGDRVVYPNQGVCRVSAIDVKEVAGQKLTFVTMRREEDGAVVAVPEGKVLAIGVRKVASAEDVEAIFTFLRSDSDKADLDWKQRARTNLDRMTQGGIMGLAEVVKGLQVLSELRPLPTKERELYDNARHLLVTEVAAALGTAEVNAEDAIDIVLFPPGRERPKRTAAE	binds	–	–
CarDNt P56A (in pKT25) (domain or fragment, UniProt Q50887 1-179) MPEGSASLQLAVGDRVVYPNQGVCRVSAIDVKEVAGQKLTFVTMRREEDGAVVMVAEGKVLAIGVRKVASAEDVEAIFTFLRSDSDKADLDWKQRARTNLDRMTQGGIMGLAEVVKGLQVLSELRPLPTKERELYDNARHLLVTEVAAALGTAEVNAEDAIDIVLFPPGRERPKRTAAE	binds	–	–
